Source: patent US20250034601A1, “HETERODIMERIC BENZALDEHYDE SYNTHASE, METHODS OF PRODUCING, AND USES THEREOF” (Purdue Research Foundation, priority 2021, published 2025)
At least one structure is not confirmed: it was looked up by name or label, or the drawing left a doubt.

Tested on: benzaldehyde synthase (BS) activity in petunia flower crude protein extracts
Assay: BS activity in petunia flower crude protein extracts with different substrates and cofactors (GC-MS)
Type: biochemical, Petunia hybrida
Conditions: substance supplied as cofactor with benzoyl-CoA or in place of benzoyl-CoA; 30 minutes at 28° C.
Description: The crude protein extracts were obtained by extraction of petunia petal tissue with buffer A (3:1 [v/w] buffer/tissue). After centrifugation of slurry at 15,000 g for 20 minutes, the supernatant was desalted with Econo-Pac 10DG Columns (Bio-Rad, Hercules, CA) according to the manufacturer's protocol and 20 μL of desalted protein was used in the activity assays. The reaction was performed for 30 minutes at 28° C. and the product was extracted with 200 μL DCM containing 1 μg naphthalene (internal standard). After centrifugation at 15,000 g for 20 minutes, 2 μL of the bottom DCM phase was injected in GC-MS, with results shown in FIG. 3A. The compounds labeled in FIG. 3A with numbers are (1) benzaldehyde, (2) benzylalcohol, (3) internal standard (naphthalene), and (4) benzylbenzoate and the different assay mixtures described above are identified with their above-associated letters.

With `NC(=O)C1=CN([C@@H]2O[C@H](COP(=O)(O)OP(=O)(O)OC[C@H]3O[C@@H](n4cnc5c(N)ncnc54)[C@H](O)[C@@H]3O)[C@@H](O)[C@H]2O)C=CC1` [NADH, nicotinamide adenine dinucleotide] the “benzaldehyde formation by crude extracts” value was “No benzaldehyde was formed”.
